# Experimental data reported in publication PMC10120035, “HY5 functions as a systemic signal by integrating BRC1-dependent hormone signaling in tomato bud outgrowth”.
# Construct, isoform or probe ends are uncertain for at least one entry. A negative result means that nothing was seen under these conditions. At least one verdict rests on a figure or table, not on a statement of the authors. Protein sequences can lack the tags named with them.
# Target: T1, HY5 (His-HY5) (Solanum lycopersicum (tomato)) (UniProt Q9SM50)
# T1 sequence (looked up, limits assumed): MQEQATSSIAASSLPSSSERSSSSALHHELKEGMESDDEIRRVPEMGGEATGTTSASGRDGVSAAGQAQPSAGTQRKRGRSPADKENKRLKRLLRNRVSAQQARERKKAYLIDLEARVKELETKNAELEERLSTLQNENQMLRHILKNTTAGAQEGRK
# Assay: EMSA
# Conditions: Light Shift Chemiluminescent EMSA kit (Thermo 20148) per manufacturer; pH and temperature not stated; recombinant protein; protein details: His (pET-32a); label: 3' biotin
row,Sequence,binding result
1,GATTTGCATAAGATTCTCAAAAACAAAAAAATCCACGAGGAAAAAC (double strand) [DET2-BC mut],no binding
2,GATTTGCATAAGATTCTCGTCAACACACGTGTCCACGAGGAAAAAC (double strand) [DET2-BC WT],binds
3,TTATAGTAAAATTAACTGTAAAACTTTAACTACATGAATAACT (double strand) [DWF-A mut],no binding
4,TTATAGTAAAATTAACTGTGTCACTTTAACTACATGAATAACT (double strand) [DWF-A WT],binds
5,TTATATTACATGATTTTTTTAAAAAATACACCAAAGTAGTCATGAAA (double strand) [BRC1-B mut],no binding
6,TTATCTAGGTTAGACAAAAGAAAAAATAGTTTCAAACGCAGTAGCC (double strand) [BRC1-C mut],no binding
7,TTATCTAGGTTAGACAAAAGCACGTGTAGTTTCAAACGCAGTAGCC (double strand) [BRC1-C WT],binds
8,TTCACTTCCAACAATACCGCAAAAAACCACTACCTGCTTCCTTCCT (double strand) [BRC1-A mut],no binding
9,TTCACTTCCAACAATACCGCTACGTACCACTACCTGCTTCCTTCCT (double strand) [BRC1-A WT],binds
10,TTGATAAAATAATACAAAAAATAATTTTGTTCAACGAAAGTTAAA (double strand) [DET2-A mut],no binding
11,TTGATAAAATAATACAAGTCATAATTTTGTTCAACGAAAGTTAAA (double strand) [DET2-A WT],binds
